Results deposited as PubChem BioAssay AID504786 (Drosophila RNAi Screening Center, 2011).
The screen tested about 21,000 reagents; below is an unselected part of those that have a named target and a result. 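Primary screen; positive scores mean lost reporter signal, so the sign may be inverted from the usual convention.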 Names joined by + are all predicted targets of the reagent.

Purpose: 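Fly genes required for HIF-dependent transcription when hypoxia is mimicked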 (primary screen)
Cells: Drosophila S2 cells with a stable HIF luciferase reporter
Reagents: long dsRNA against Drosophila genes, about 0.2 µg dsRNA per well of a 384-well plate
Time to read-out: three days of knock-down, then 20 h of DFO before reading
Challenge: desferrioxamine (DFO) at 100 µM, an iron chelator that mimics hypoxia, for 20 h
Measured: 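HIF reporter luminescence in cells given 100 µM DFO for 20 h, using the mouse ldh-a hypoxia-response element, scored as per-plate z-scores; higher means greater loss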
Reading the numbers: z-score: higher = stronger loss of HIF reporter signal

no.	predicted target	amplicon	z-score, replicate 1	z-score, replicate 2
1	TTLL1B (Tubulin tyrosine ligase-like 1B)	DRSC08594	-0.3	-0.9
2	CG6638	DRSC10680	-0.3	-0.4
3	CG14104	DRSC10106	-0.3	0
4	CG14803	DRSC18556	-0.2	0.2
5	HmgD (High mobility group protein D)	DRSC04619	-0.2	0
6	prod (proliferation disrupter)	DRSC07667	1.5	2.1
7	Hip1 (Huntingtin interacting protein 1)	DRSC09812	-0.4	-0.8
8	rho-4 (rhomboid-4)	DRSC19761	-0.3	-0.4
9	rho-4 (rhomboid-4)	DRSC19762	-0.2	0.6
10	CG10126	DRSC14191	-0.1	0
11	CG12985	DRSC19505	-0.4	-0.8
12	Ir48c (Ionotropic receptor 48c)	DRSC06154	-0.6	-1.1
13	wry (weary)	DRSC00352	-0.1	0.7
14	wry (weary)	DRSC00456	0	-0.1
15	PolZ1 (DNA polymerase zeta subunit 1)	DRSC06800	-0.3	-0.2
16	CG1677	DRSC18116	0.7	0
17	fw (furrowed)	DRSC20334	-0.3	0
18	lncRNA:CR42862 (long non-coding RNA:CR42862)	DRSC08348	0.4	0.3
19	CG17739	DRSC06689	-0.3	-0.3
20	dgt6 (dim gamma-tubulin 6)	DRSC14424	-0.2	-0.3
21	SPH93 (Serine protease homolog 93)	DRSC02978	-0.2	-0.4
22	scyl (scylla)	DRSC11392	-0.3	-0.6
23	Btk (Bruton tyrosine kinase)	DRSC02008	-0.4	-0.9
24	Btk (Bruton tyrosine kinase)	DRSC02666	-0.3	-0.8
25	CG13300	DRSC09974	-0.4	-0.9
26	l(2)37Cb (lethal (2) 37Cb)	DRSC02095	0.5	1.4
27	AttC (Attacin-C)	DRSC06886	-0.3	-0.3
28	CG8001	DRSC08611	-0.3	0.7
29	CG7675	DRSC16280	-0.2	-0.5
30	dyw (daywake)	DRSC18228	-0.3	-0.6
31	CG17929	DRSC15291	-0.2	0.1
32	tou (toutatis)	DRSC06006	-0.4	-0.8
33	Sirup (Starvation-upregulated protein)	DRSC03031	-0.4	-0.6
34	KLHL18 (Kelch like family member 18)	DRSC15496	-0.3	-0.5
35	Unc-115b + p24-2	DRSC16492	-0.3	-0.4

Records listed so far whose gene name starts with P or p:
predicted target	amplicon	z-score, replicate 1	z-score, replicate 2
prod (proliferation disrupter)	DRSC07667	1.5	2.1
PolZ1 (DNA polymerase zeta subunit 1)	DRSC06800	-0.3	-0.2

The listing continues.
no.	predicted target	amplicon	z-score, replicate 1	z-score, replicate 2
36	CG15212	DRSC10212	-0.3	-0.7
37	Cyp6g2 (Cytochrome P450 6g2)	DRSC07387	-0.4	0.2
38	CG33969	DRSC11777	-0.3	-0.6
39	CG14505	DRSC06476	-0.3	-0.7
40	CG32111 (retired record)	DRSC09203	0	-0.2
41	CG13332	DRSC06367	-0.2	-0.3
42	cyc (cycle)	DRSC11337	-0.3	0.1
43	CG4596	DRSC15608	-0.2	-0.3
44	CG42544	DRSC12451	-0.6	-0.9
45	Obp58b (Odorant-binding protein 58b)	DRSC04161	-0.4	-0.3
46	TwdlS (TweedleS)	DRSC14737	-0.4	0.4
47	Galk (Galactokinase)	DRSC10500	-0.3	-0.6
48	CG12483	DRSC08278	-0.4	0.2
49	Cont (Contactin)	DRSC12149	-0.3	-0.1
50	Ns1 (Nucleostemin 1)	DRSC15529	1.3	5
51	VhaPPA1-2 (Vacuolar H[+] ATPase PPA1 subunit 2)	DRSC16176	0	-0.3
52	CG34205	DRSC04149	-0.3	-0.4
53	CG2641	DRSC15441	-0.1	-0.2
54	IPIP (Inositol phosphatase interacting protein)	DRSC02164	-0.4	-0.6
55	eIF3e (eukaryotic translation initiation factor 3 subunit e)	DRSC11199	6.4	5.3
56	fs(1)N (female sterile (1) Nasrat)	DRSC18578	0.3	1.2
57	CG4615	DRSC17491	-0.3	-0.4
58	CG4615	DRSC18376	1.7	3
59	mth (methuselah)	DRSC08725	-0.1	0
60	ato (atonal)	DRSC16904	0	0.4
61	nonA-l (nonA-like)	DRSC17017	-0.5	-0.4
62	gom (gomdanji)	DRSC04690	-0.2	-0.3
63	CG15431	DRSC00446	-0.1	0.2
64	CG7148	DRSC11802	-0.3	-0.5
65	Mpcp1	DRSC07337	-0.3	-0.3
66	CG1910	DRSC15400	0.7	1.3
67	kumpel (kin of rumpel)	DRSC14883	-0.3	-0.7
68	kumpel (kin of rumpel)	DRSC16459	-0.4	-0.5
69	kumpel (kin of rumpel)	DRSC16460	-0.4	-0.6
70	kumpel (kin of rumpel)	DRSC16461	-0.2	-0.2
71	kumpel (kin of rumpel)	DRSC16462	-0.3	-0.3
72	kumpel (kin of rumpel)	DRSC16463	-0.5	-0.5
73	CG13723	DRSC10052	-0.2	-0.1
74	CG15096	DRSC06525	-0.2	-0.3
75	mRpL48 (mitochondrial ribosomal protein L48)	DRSC00506	0.7	1
76	CG16815	DRSC02521	-0.4	0.5
77	CG17217	DRSC02592	-0.3	-0.7
78	CG7914	DRSC20068	-0.5	-0.7
79	Ts (Thymidylate synthase)	DRSC00795	-0.3	-0.3
80	CG1628	DRSC18109	-0.4	-0.4
81	CG14518	DRSC14870	-0.3	-0.4
82	dhd (deadhead)	DRSC18761	-0.3	-0.2
83	mbm + CG11555	DRSC00315	-0.3	0.8
